Here are results for one sequence from paper PMC10439915, “Development of an interfering peptide M1-20 with potent anti-cancer effects by targeting FOXM1” (Cell Death & Disease, 2023).

Construct, isoform or probe ends are uncertain for at least one entry. At least one verdict rests on a figure or table, not on a statement of the authors.

This series concerns His-FOXM1. The series is described as follows: EMSA. Particulars: 2 uM protein, 50 nM probe, unlabeled cold probe used as specificity competitor; 20 mM Tris-Cl pH 7.6, 50 mM KCl, 10% glycerol, 0.5 mM EDTA, 0.2 mM DTT, 30 min on ice; 4% native PAGE in 0.5x TBE; recombinant protein; protein details: His.

As for “TTTGTTTATTTGTTTGTTTATTTG (double strand) [FAM-labeled FOXM1 EMSA probe]”, the binding result was “binds”.
